Measurements reported in PubChem BioAssay AID1259405 (NCATS, 2018)
Shown is an unselected part of about 50,000 reagents. Of all reagents, about 4,000 (8%) are marked active. 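Mouse siRNA library applied to hamster cells; one well for each siRNA.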 The numbers tell different reagents against one gene apart.

- Purpose: 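Knock-downs that lift recombinant protein yield in hamster ovary cells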 (primary screen)
- Cells: Chinese hamster CHO-K1 ovary cells with stable secreted eGFP expression
- Reagents: single siRNA against mouse genes, 0.8 pmol siRNA per well (2 µl of 400 nM stock)
- Timing: 3 days
- Measured: 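Per-well intracellular GFP measured by laser scanning cytometry, plus viability from ATP luminescence, each relative to plate median of non-targeting control wells, in %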
- Reading the numbers: GFP, % of control: higher = more GFP per well, higher productivity; viability (ATP), % of control: higher = more viable cells (more ATP)
- Call rule: 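a knock-down is called active if GFP reaches 120% or more of non-targeting control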

no.	target	reagent no.	GFP, % of control	viability (ATP), % of control	Outcome
1	Hook2	1	74.1	101	inactive
2	Hook2	2	84.7	53.5	inactive
3	Fam110b	1	82.8	89.7	inactive
4	Fam110b	2	66.3	56.2	inactive
5	Fam110b	3	58	50.3	inactive
6	Or12d15	1	84.7	58.9	inactive
7	Or12d15	2	99.2	54.5	inactive
8	Or12d15	3	62.3	81.1	inactive
9	Tsku	1	141	61.6	active
10	Tsku	2	75.1	80.3	inactive
11	Tsku	3	85.4	109	inactive
12	Lrrc28	1	75	85.4	inactive
13	Lrrc28	2	81.6	83.9	inactive
14	Lrrc28	3	83.1	77.9	inactive
15	Stk17b	1	112	92.3	inactive
16	Zfp787	1	89.6	85.3	inactive
17	Zfp787	2	90.9	72.4	inactive
18	Zfp787	3	73.3	79.1	inactive
19	Sh3bp2	1	58.7	45.7	inactive
20	Sh3bp2	2	103	59.5	inactive
21	Sh3bp2	3	86.8	103	inactive
22	Fcrl2	1	291	118	active
23	Fcrl2	2	65.6	61.5	inactive
24	Fcrl2	3	76.8	73.2	inactive
25	Nat3	1	89.2	90.9	inactive
26	Nat3	2	65.2	68.4	inactive
27	Nat3	3	61.4	74.2	inactive
28	Cyp2c54	1	134	59.4	active
29	Cyp2c54	2	66.4	75.3	inactive
30	Cyp2c54	3	91	95.1	inactive

An excerpt from the list above:
no.	target	reagent no.	GFP, % of control	viability (ATP), % of control	Outcome
12	Lrrc28	1	75	85.4	inactive
13	Lrrc28	2	81.6	83.9	inactive
14	Lrrc28	3	83.1	77.9	inactive
15	Stk17b	1	112	92.3	inactive
16	Zfp787	1	89.6	85.3	inactive
17	Zfp787	2	90.9	72.4	inactive
18	Zfp787	3	73.3	79.1	inactive
19	Sh3bp2	1	58.7	45.7	inactive
20	Sh3bp2	2	103	59.5	inactive

Additional entries follow:
no.	target	reagent no.	GFP, % of control	viability (ATP), % of control	Outcome
31	Soat2	1	82	82.6	inactive
32	Soat2	2	112	122	inactive
33	Soat2	3	47.8	77.1	inactive
34	Mdm2	1	110	57.6	inactive
35	Mdm2	2	68.6	66.8	inactive
36	Mdm2	3	57.2	85.9	inactive
37	Med24	1	76.7	85.9	inactive
38	Med24	2	69.3	60.2	inactive
39	Med24	3	71.4	63.9	inactive
40	Ptk7	1	55.7	57.5	inactive
41	Ptk7	2	94.8	107	inactive
42	Ptk7	3	66.9	71.9	inactive
43	Nr2c2ap	1	63.9	76.4	inactive
44	Nr2c2ap	2	117	96.3	inactive
45	Nr2c2ap	3	66.3	79.7	inactive
46	Cfap91	1	74.3	100	inactive
47	Cfap91	2	79.5	72.3	inactive
48	Cfap91	3	89.2	89.6	inactive
49	Fstl1	1	55.7	65.9	inactive
50	Fstl1	2	98.4	125	inactive
51	Or8b57	1	75.2	58.4	inactive
52	Or8b57	2	48.3	34.5	inactive
53	Or8b57	3	66.4	64.4	inactive
54	Adam19	1	75.7	62	inactive
55	Adam19	2	151	103	active
56	Adam19	3	99.1	99	inactive
57	Gbgt1	1	181	143	active
58	Gbgt1	2	77.7	71.1	inactive
59	Gbgt1	3	132	95.2	active
60	Bmp8b	1	48.5	52.1	inactive
61	Bmp8b	2	37.9	42.5	inactive
62	Bmp8b	3	60.2	64	inactive
63	Gusb	1	73.6	77.9	inactive
64	Gusb	2	64.8	74.4	inactive
65	Gusb	3	33.5	64	inactive
66	Nkapd1	1	66.7	48.8	inactive
67	Nkapd1	2	99.1	78.5	inactive
68	Nkapd1	3	90.9	99.7	inactive
69	Casd1	1	108	111	inactive
70	Casd1	2	94.6	82	inactive
71	Or4f6	1	107	73.1	inactive
72	Or4f6	2	48.5	60.2	inactive
73	Or4f6	3	59.5	103	inactive
74	Tpp1	1	75.4	98	inactive
75	Tpp1	2	120	72.3	inactive
76	Tpp1	3	43.2	46.9	inactive
77	Pard6a	1	60.1	76.4	inactive
78	Pard6a	2	97.4	55.7	inactive
79	Pard6a	3	78.1	131	inactive
80	D430018E03Rik	1	79.9	82.4	inactive
81	D430018E03Rik	2	88.5	70.4	inactive
82	D430018E03Rik	3	124	87.6	active
83	Dpy19l3	1	74.9	52.7	inactive
84	Dpy19l3	2	58.9	56	inactive
85	Dpy19l3	3	62.4	78.2	inactive
